According to patent publication US9265816B2, “Immunogenic WT-1 peptides and methods of use thereof” (priority 2006, dated 2016):
At least one peptide structure holds a part that was inferred or is arguable (an end, a ring closure or a residue). Residues, ends and D or L forms follow the SMILES beside them.

Key:
Format in all cases: cell-based, human
[1] = tested on: CD3+ T cells; test: IFN-gamma ELISPOT of peptide-stimulated T cells from healthy donors with different HLA-DRB1 types; conditions: for generation of antigen-specific CD4+ T cells, IFN-γ ELISPOT: 2 stimulations, FIG. 7A-B; for experiments with peptide specific T cell responses: 7 healthy donors, each a different HLA-DRB1 type, positive/total experiments
Protocol: PBMC were Ficoll-purified from blood and resuspended at 5×10^6/ml in Ex-Vivo-150® medium (BioWhittaker, Walkersville, Md.) containing 1% autologous plasma. After a 2-hour incubation at 37° C., the non-adherent fraction was harvested and washed repeatedly with PBS, then resuspended in media containing 1×10^3 IU/ml GM-CSF and 0.0032 IU/ml IL-4. On day 2 and 4, the same media was added as re-feed (i.e., ½ the volume of media, containing enough cytokines for the entire dish, was added). On day 5, 10 μg/ml of peptide was added.
On day 6, a maturation cocktail of cytokines was added, and cells were cultured for another 48 hours. The maturation cocktail consisted of: 4×10^2 IU/ml IL-1-beta, 0.0032 IU/ml IL-4, 1×10^3 IU/ml IL-6, 1×10^3 IU/ml GMCSF, […], and 1 μg/ml PGE2.
On day 7, DC were harvested and washed twice with RPMI, counted, aliquoted and resuspended at 1×10^6/ml in X-vivo 15® media (without serum). Peptides were added to a final concentration of 10 μg/ml, and incubated for 2 h, 37° C. and 5% CO2, gently re-suspending every 15 minutes, then washed twice in HBSS and re-suspended in RPMI+5% autologous plasma at an appropriate concentration depending on the number of effectors isolated in the next step.
In addition, on day 7, additional PBMC were used to generate additional DC and CD3^+ cells. DC were isolated from the adherent fraction and prepared as described above for the second stimulation of the effector cells on day 14. CD3^+ cells were isolated from the non-adherent fraction by negative selection and stimulated with the previously prepared DC by re-suspending the CD3^+ cells at a concentration of 2×10^6 cells/ml in RPMI+5% autologous plasma, and adding DC at an effector:DC ratio of 20:1 and 10 ng/ml IL-15. Cells were then plated in 2 ml and co-incubated at 37° C. and 5% CO2 for 1 week.
On day 14, the CD3^+ cells were stimulated a second time with the second batch of DC in the same manner, except that 1×10^6 cells/ml were mixed with DC at an effector:DC ratio of 50:1. On day 18, the same media was added as re-feed. On day 20, the DC from the previous generation were defrosted and incubated in maturation cytokines in X-vivo 15® media. On day 21, the ELISPOT assay was conducted.
Plates were pre-wet with 30 μl/well 70% alcohol, shaking the plates to ensure coverage of the entire surface area, washed 3 times with 150 μl/well sterile PBS, then incubated overnight at 4° C. with 10 μg/ml coating antibody (anti-INF clone) in PBS, 100 μl/well, wrapped in aluminum foil. Plates were then washed 2 times with 150 μl/well PBS and 1 time with RPMI/10% autologous plasma (AP), then blocked with 150 μl/well RPMI/5% AP for 2 hours at 37° C. PBMC were suspended in RPMI/5% AP at 1×10^6/ml. […]

[2] = tested on: CD8+ T cells; test: IFN-gamma ELISPOT, CD8+ T cell response against native short epitope WT1A; conditions: FIG. 7C
[3] = tested on: CD3+ T cells; test: Cross-priming: T cells stimulated with DCs incubated with tumor lysates, IFN-gamma ELISPOT against peptide-pulsed DCs; conditions: WT1 positive tumor lysates, 5 separate donors
Protocol: A CD3^+ in vitro stimulation was performed as described above. 2×10^6 immature DCs were incubated with total cellular lysate from 2×10^6 tumor cells that was previously prepared by 3 freeze/thaw cycles. Following an 18 hour incubation, maturation cytokines were added to the DCs as described above. […] These DCs were exposed to peptide again during the ELISPOT assay as described above.
Total tumor lysates were prepared from 3 different cell lines: 697 (WT1^+, HLA A0201^+), an e1a2 leukemia cell line; JMN (WT1^+, HLA A0201^+) a biphasic mesothelioma cell line, and as a control, MeWo (WT1^−, HLA A0201^+), a malignant melanoma cell line. DCs from healthy A0201^+ donors were incubated for 18 hours with the tumor lysates and used to stimulate autologous CD3^+ T cells. Following 3 stimulations, the T cells were tested for their reactivity to autologous DCs pulsed with the WT1 peptides. […] These experiments were repeated in 5 separate donors.

[4] = tested on: SKLY16 (WT1 negative B cell lymphoma); test: Chromium 51 cytotoxicity assay; conditions: unpulsed SKLY16; recognized only if pulsed with WT1A
[5] = tested on: JMN (WT1+ mesothelioma cell line); conditions: FIG. 9 right panel
Protocol: (§1) FIG. 9, left panel. […] The presence of specific CTL was measured in a standard 4 h-chromium release assay. Target cells were pulsed with 10 microgram (mcg)/ml of synthetic peptides overnight at 37° C. and labeled with 300 μCi of Na2^51CrO4 (NEN Life Science Products, Inc., Boston, Mass.). After extensive washing, target cells were incubated with T cells at an E:T ratio ranging from 100:1 to 10:1. All conditions were performed in triplicate. Plates were incubated for 4 hours at 37° C. in 5% CO2. Supernatant fluids were harvested and radioactivity was measured in a gamma counter. Percent specific lysis was determined from the following formula: 100×[(experimental release minus spontaneous release)/(maximum release minus spontaneous release)]. Maximum release was determined by lysis of radiolabeled targets in 2.5% Triton X-100.

[6] = tested on: MeWo (WT1- melanoma cell line); test: Chromium 51 cytotoxicity assay; conditions: MeWo alone or pulsed with WT1 122A1 peptide
Protocol: as §1

[7] = tested on: WT1+ mesothelioma tumor cell; test: IFN-gamma ELISPOT of peptide-stimulated T cells challenged with tumor cells; conditions: FIG. 8 right panel
[8] = tested on: WT1 negative melanoma cells (MeWo); test: as above; conditions: FIG. 8 right panel

SMILES | generation of antigen-specific CD4+ T cells, IFN-γ ELISPOT [1] | experiments with peptide specific T cell responses [1] | activation of CD8+ T cells against native short epitope WT1A [2] | experiments in which lysate-stimulated T cells recognized the peptide [3] | activation of CD8+ T cells against native short epitope WT1A ([2]; listed as WT1 DR 122A1) | activation of CD8+ T cells against native short epitope WT1A ([2]; listed as WT1DR 122A1) | recognition of SKLY16 by stimulated CD8+ T cells [4] | recognition of JMN cells by stimulated CD3+ T cells [5] | recognition of MeWo cells by stimulated CD3+ T cells [6] | IFN-gamma production on pulsing WT1 positive target cells with additional peptide [7] | IFN-gamma production on pulsing control WT1 negative target cells with additional peptide [8]
CSCC[C@H](NC(=O)[C@H](CCCNC(=N)N)NC(=O)[C@H](C)NC(=O)[C@H](CCC(N)=O)NC(=O)CNC(=O)[C@@H](N)CO)C(=O)N[C@@H](Cc1ccccc1)C(=O)N1CCC[C@H]1C(=O)N[C@@H](CC(N)=O)C(=O)N[C@@H](C)C(=O)N1CCC[C@H]1C(=O)N[C@@H](Cc1ccc(O)cc1)C(=O)N[C@@H](CC(C)C)C(=O)N1CCC[C@H]1C(=O)N[C@@H](CO)C(=O)N[C@@H](CS)C(=O)N[C@@H](CC(C)C)C(=O)N[C@@H](CCC(=O)O)C(=O)N[C@@H](CO)C(=O)O [Peptide 122] (H-SGQARMFPNAPYLPSCLES-OH; N-terminus and C-terminus assumed) | generated CD4^+ T cells that recognized targets pulsed with peptides containing the respective CD4^+ epitopes | ⅖ | able to activate CD8^+ T cells |  |  |  |  |  |  |  | 
CSCC[C@H](NC(=O)[C@H](Cc1ccc(O)cc1)NC(=O)[C@H](C)NC(=O)[C@H](CCC(N)=O)NC(=O)CNC(=O)[C@@H](N)CO)C(=O)N[C@@H](Cc1ccccc1)C(=O)N1CCC[C@H]1C(=O)N[C@@H](CC(N)=O)C(=O)N[C@@H](C)C(=O)N1CCC[C@H]1C(=O)N[C@@H](Cc1ccc(O)cc1)C(=O)N[C@@H](CC(C)C)C(=O)N1CCC[C@H]1C(=O)N[C@@H](CO)C(=O)N[C@@H](CS)C(=O)N[C@@H](CC(C)C)C(=O)N[C@@H](CCC(=O)O)C(=O)N[C@@H](CO)C(=O)O [Peptide 122A1] (H-SGQAYMFPNAPYLPSCLES-OH) | generated CD4^+ T cells that recognized targets pulsed with peptides containing the respective CD4^+ epitopes | 6/9 |  | ⅗ | able to activate CD8^+ T cells | more potent stimulator | did not recognize SKLY16 | recognized JMN cells | not negative control MeWo cells | production did not increase | IFN-gamma production increased
